One series in a line: physchem. Conditions: organic solvent or mixture, thermodynamic from solid.
Series [1] can be described thus: Exposure of active ingredient (I) in the rat after single oral dose. As to conditions: male rats, oral 3.00 mg/kg; relative to PEG solution of example 1-2 (100% reference).

Molecules are shown by their SMILES. In brackets after ≈: the same amount, converted by molar mass.

Turning to `CC[C@@H](C(=O)Nc1ccc(C(N)=O)c(F)c1)n1cc(OC)c(-c2cc(Cl)ccc2-n2cc(C(F)(F)F)nn2)cc1=O` [4-({(2S)-2-[4-{5-chloro-2-[4-(trifluoromethyl)-1H-1,2,3-triazol-1-yl]phenyl}-5-methoxy-2-oxopyridin-1(2H)-yl]butanoyl}amino)-2-fluorobenzamide], the solubility in “physchem” (Solubility in a mixture of ethanol/acetone (1:1)) is roughly 180 mg/mL (≈ 304 mM); in “physchem” (Solubility in acetone), roughly 80 mg/mL (≈ 135 mM); in the series “physchem” (Solubility in ethanol) it was roughly 35 mg/mL (≈ 59 mM). Further, in series [1], the “F rel [%] animal” value was determined as 11%.

A word on the solubility: it is the dissolved amount per volume that the medium holds.

The values are drawn from patent US20240173310A1, “PHARMACEUTICAL DOSAGE FORMS COMPRISING (4S)-24-CHLORO-4-ETHYL-73-FLUORO-35-METHOXY-32,5-DIOXO-14-(TRIFLUOROMETHYL)-32H-6-AZA-3(4,1)-PYRIDINA-1(1)-[1,2,3]TRIAZOLA-2(1,2),7(1)-DIBENZENAHEPTAPHANE-74-CARBOXAMIDE” (Bayer Aktiengesellschaft, priority 2021, published 2024).
